# Laboratory results as given in patent US20070178045A1 (priority 2004, published 2007).
# Experiment: general procedure: Fmoc solid-phase peptide synthesis; Fmoc-Gly-Res
# Settings: whole synthesis, scale 0.69 mmol
substance,measurement,value
c[Arg-Gly-Asp-D-Phe-Aad),isolated mass,187 mg
